Source: patent US8927750B2, “Acyloxy- and phosphoryloxy-butadiene-Fe(CO)3 complexes as enzyme-triggered co-releasing molecules” (priority 2011, dated 2015)
Like-named read-outs stand apart in the source and are kept apart here.

Assays:
Format in all cases: biochemical
[1] = test system: lipase from Candida rugosa
[2] = test system: lipase from Candida rugosa; conditions: open tube, 10 mg complex, 20 mg lipase
pig liver esterase (PLE) = test system: pig liver esterase (PLE)
[3] = time 0 min, 12 mg complex, 15 mg enzyme
[4] = time 110 min, 12 mg complex, 15 mg enzyme

Compound: CC(=O)OC1=CCCC=C1.[C-]#[O+].[C-]#[O+].[C-]#[O+].[Fe] [rac-86, (RS)-[η^4-Cyclohexa-1,5-dien-1-yl-tricarbonyliron(0)]acetate]
- ee (%) of remaining starting material ([1]; time 0 min, 8 mg enzyme): 0/0%
- ee (%) of remaining starting material ([1]; time 15 min, 8 mg enzyme): 51%
- ee (%) of remaining starting material ([1]; time 30 min, 8 mg enzyme): 75%
- ee (%) of remaining starting material ([1]; time 60 min, 8 mg enzyme): 93%
- ee (%) of remaining starting material ([1]; time 110 min, 8 mg enzyme): 100%
- ee (%) of remaining starting material ([1]; time 240 min, 8 mg enzyme): 100%
- ee (%) ([2]; time 0 min): 0/0%
- ee (%) ([2]; time 15 min): 62%
- ee (%) ([2]; time 30 min): 67%
- ee (%) ([2]; time 60 min): 70%
- ee (%) ([2]; time 110 min): 70%

Compound: CC(C)(C)C(=O)OC1=CCCC=C1.[C-]#[O+].[C-]#[O+].[C-]#[O+].[Fe] [rac-87, (RS)-[η^4-Cyclohexa-1,5-dien-1-yl-tricarbonyliron(0)] pivalate]
- ee (%) of remaining starting material ([1]; time 0 min, 8 mg enzyme): 0/0%
- ee (%) of remaining starting material [1, 3]: 0/0%
- ee (%) of remaining starting material ([1]; time 30 min, 8 mg enzyme): 2%
- ee (%) of remaining starting material ([1]; time 60 min, 8 mg enzyme): 5%
- ee (%) of remaining starting material ([1]; time 110 min, 8 mg enzyme): 6%
- ee (%) of remaining starting material [1, 4]: 14%
- ee (%) of remaining starting material ([1]; time 240 min, 8 mg enzyme): 11%
- ee (%) of remaining starting material ([1]; time 240 min, 12 mg complex, 15 mg enzyme): 20%
- ee (%) of remaining starting material ([1]; time 24 h, 8 mg enzyme): 38%
- ee (%) of remaining starting material ([1]; time 24 h, 12 mg complex, 15 mg enzyme): 58%

Compound: CC(=O)OC1=CC(C)(C)CC(OC(C)=O)=C1.[C-]#[O+].[C-]#[O+].[C-]#[O+].[Fe] [rac-13, reference compound]
- ee (%) of remaining starting material (pig liver esterase (PLE); time 5 min, 13 mg complex, 0.8 mg enzyme): —/10%
- ee (%) of remaining starting material (pig liver esterase (PLE); time 15 min, 13 mg complex, 0.8 mg enzyme): 13%
- ee (%) of remaining starting material (pig liver esterase (PLE); time 30 min, 13 mg complex, 0.8 mg enzyme): 18%
- ee (%) of remaining starting material (pig liver esterase (PLE); time 45 min, 13 mg complex, 0.8 mg enzyme): 27%
- ee (%) of remaining starting material (pig liver esterase (PLE); time 150 min, 13 mg complex, 0.8 mg enzyme): 37%
- ee (%) of remaining starting material (pig liver esterase (PLE); time 210 min, 13 mg complex, 0.8 mg enzyme): 100%

Compound: CC(=O)OC1=CC=CCC1.[C-]#[O+].[C-]#[O+].[C-]#[O+].[Fe] [rac-96, (RS)-[θ^4-Cyclohexa-1,3-dien-1-yl-tricarbonyliron(0)]acetate]
- ee (%) of remaining starting material [1, 3]: 0/0%
- ee (%) of remaining starting material ([1]; time 15 min, 12 mg complex, 15 mg enzyme): 20%
- ee (%) of remaining starting material ([1]; time 30 min, 12 mg complex, 15 mg enzyme): 30%
- ee (%) of remaining starting material ([1]; time 60 min, 12 mg complex, 15 mg enzyme): 50%
- ee (%) of remaining starting material [1, 4]: 70%
- ee (%) of remaining starting material (pig liver esterase (PLE); time 0 min, 10 mg complex, 1 mg enzyme): 5%
- ee (%) of remaining starting material (pig liver esterase (PLE); time 120 min, 10 mg complex, 1 mg enzyme): 11%
- ee (%) of remaining starting material (pig liver esterase (PLE); time 180 min, 10 mg complex, 1 mg enzyme): 17%
- ee (%) of remaining starting material (pig liver esterase (PLE); time 300 min, 10 mg complex, 1 mg enzyme): 35%
- ee (%) of remaining starting material (pig liver esterase (PLE); time 420 min, 10 mg complex, 1 mg enzyme): 69%
- ee (%) of remaining starting material (pig liver esterase (PLE); time 540 min, 10 mg complex, 1 mg enzyme): 73%
- ee (%) of remaining starting material (pig liver esterase (PLE); time 660 min, 10 mg complex, 1 mg enzyme): 74%
- ee (%) ([2]; time 0 min): 0/0%
- ee (%) ([2]; time 15 min): 43%
- ee (%) ([2]; time 30 min): 71%
- ee (%) ([2]; time 60 min): 96%
- ee (%) ([2]; time 110 min): 100%
